The filed quantity is “Percent Effect” (%). The record does not define 0% and 100%; most values in the screen are far below 50% and negative numbers occur (in some assays of this library far below -100). This is an unselected part of the compounds tested. Two or more numbers in one place are separate tests of the same structure; such repeats can differ widely. A dash means the value is not listed here; it may have been measured.

T. brucei: 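Whole-parasite assay of Trypanosoma brucei over 72 hours; the read-out is not stated. Concentration: 30 µM. The record gives no direction; compounds that gave an IC50 in retests scored well above the rest, so higher reads as stronger inhibition. Values scatter widely below zero; nearly all retest evidence comes from the higher of the two concentrations used. About 64,000 compounds were tested under these conditions; 1.5% (about 940) showed 50% or more at least once.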
Toxoplasma: 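Assay of Toxoplasma gondii numbers, read through their beta-galactosidase reporter with a colour substrate. Compounds at 10 µM. The record gives no direction; the compounds picked for IC50 retests had high values, so higher reads as fewer parasites. About 67,000 compounds were tested under these conditions; 0.38% (about 260) showed 50% or more at least once.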
Leishmania in macrophages: 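Cell assay of Leishmania donovani living inside macrophages; the read-out is not stated. Tested at 30 µM. Higher reads as stronger inhibition (inferred: compounds with an IC50 in retests scored well above the rest). Of about 69,000 compounds tested this way, about 1,000 (1.5%) reached 50% or more in at least one test.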

N[C@H]1CN(C(=O)c2ccccc2OCc2ccccc2)C[C@@H]1C1CC1 gave Toxoplasma: -24.22%; Leishmania in macrophages: -40.23%. With O=C(c1ccc2c(c1)COC2)N1CCC(Nc2cccnn2)CC1 the screen gave T. brucei: 30%; Toxoplasma: 6.67%; Leishmania in macrophages: 1.342%. For N#Cc1ccccc1N1CCCN(C(=O)CCc2cccs2)CC1 the result was T. brucei: 5.471%; Toxoplasma: -24.87%; Leishmania in macrophages: -3.78%. Result for CCN(CC)S(=O)(=O)NC1CCN(c2ccc(OC)cc2)CC1 was T. brucei: 7.564%; Toxoplasma: 0.1147%; Leishmania in macrophages: -6.326%. For COc1ccc(CNC(=O)Nc2ccc(N3CCCC3)nc2)cc1O the result was T. brucei: -0.5376%; Toxoplasma: 16.97%; Leishmania in macrophages: 28%. Result for O=c1ccc(-n2ccnc2)nn1CCNS(=O)(=O)c1ccccc1Cl was T. brucei: 6.734%; Toxoplasma: -11.71%; Leishmania in macrophages: 15.07% and -4.674%. CN(Cc1cccnc1)C1CC2(CCN(C(=O)c3cnccn3)CC2)C1 read T. brucei: -12.05%; Toxoplasma: 3.387%; Leishmania in macrophages: -11.15%.

With CC(C)(O)CN1CCN(C(=O)COCC2CC2)CC1 the screen gave T. brucei: -14.75%; Toxoplasma: -13.7%; Leishmania in macrophages: 4.211%. For Cl.O=C(C1CC1)N1CCC2(CC1)CNc1ccc(F)cc12 the result was Toxoplasma: 3.313%; Leishmania in macrophages: 16.3%. O=C(O)C(F)(F)F.O=C(O)C(F)(F)F.c1ccc(NCc2cn3c(n2)CN(Cc2cccs2)CC3)nc1 gave T. brucei: 9.201%; Toxoplasma: -1.232%; Leishmania in macrophages: -25.87%. CC(c1ccncn1)N(C)Cc1cc(O)c2cc(F)ccc2n1 (stereo not drawn) read T. brucei: -7.741%; Toxoplasma: 6.916%; Leishmania in macrophages: 24.07%. Result for COc1cccc(N2CCN(C(=O)c3ccc(=O)n(C)c3)CC2)c1 was T. brucei: -367.6%; Toxoplasma: -12.05%; Leishmania in macrophages: 1.802%. Cc1nn(C)c(C)c1CC(=O)N1CCCN(c2cccnn2)CC1 read T. brucei: -5.706%; Toxoplasma: 20.4%; Leishmania in macrophages: 10.4%. Result for CCc1nc(CN2CCCN(C(=O)CCOC(C)C)CC2)cs1 was T. brucei: 10.18%; Toxoplasma: -9.102%; Leishmania in macrophages: 29.1%.

For Cc1ccc(CN2Cc3c(C(=O)N4CCOCC4)nn(C)c3C2)s1.O=C(O)C(F)(F)F the result was T. brucei: -0.4418%; Toxoplasma: -0.3698%; Leishmania in macrophages: 15.89%. O=C(NCCC1CCN(CC(F)(F)F)CC1)C1CCCOC1 (stereo not drawn) gave T. brucei: -31.88%; Toxoplasma: 1.411%; Leishmania in macrophages: 22.49%. For O=C(N1CCOCC1)N1CCc2[nH]nc(COc3cccc(Cl)c3)c2C1 the result was T. brucei: -10.19%; Toxoplasma: -4.295%; Leishmania in macrophages: -3.532%. Result for N#Cc1cccc(OCCN2CCCC2C(=O)Nc2nccs2)c1 (stereo not drawn) was T. brucei: -49.43%; Toxoplasma: 2.923%; Leishmania in macrophages: 2.429%. Result for [H][C@@]12CN(C(N)=O)C[C@]1([H])CN(C(=O)c1ccco1)C2 was T. brucei: -24.43%; Toxoplasma: 5.964%; Leishmania in macrophages: 4.568%. O=C(N[C@@H]1CCN(Cc2cccc3nonc23)C[C@H]1O)c1cccnc1 read T. brucei: -2.004%; Toxoplasma: -11.17%; Leishmania in macrophages: 9.069%. With O=C(Nc1ccc(CC(=O)N2CCCC2)cc1)NC1CC1 the screen gave T. brucei: -11.24%; Toxoplasma: 10.92%; Leishmania in macrophages: 15.08%.

C[C@@H](O)CNC(=O)c1nc(CC(=O)Nc2cccc(C(F)(F)F)c2)no1 gave T. brucei: -12.09%; Toxoplasma: -5.832%; Leishmania in macrophages: -26.5%. O=C(O)C(F)(F)F.O=C(O)C(F)(F)F.[H][C@@]12CCN(Cc3ccoc3)C[C@]1([H])OCCN(Cc1cccnc1)C2=O read T. brucei: 15.37%; Toxoplasma: -1.165%; Leishmania in macrophages: -3.489%. With CC(SCCC(=O)NC(N)=O)c1cccc(F)c1 (stereo not drawn) the screen gave T. brucei: -48.78%; Toxoplasma: -0.3157%; Leishmania in macrophages: 16.78%. With CN(Cc1nnc(C2CC2)n1C)C1CCN(Cc2ccccc2)C1 (stereo not drawn) the screen gave T. brucei: -38.59%; Toxoplasma: 10.6%; Leishmania in macrophages: -2.093%. Result for Cc1nc(C2CCCN2CCCNS(C)(=O)=O)no1 (stereo not drawn) was T. brucei: 5.729%; Toxoplasma: -14.68%; Leishmania in macrophages: 19.77%. c1cc(CN2CCCC(c3ccnc4nccn34)C2)ccn1 (stereo not drawn) gave T. brucei: 7.898%; Toxoplasma: -0.6107%; Leishmania in macrophages: 35.7%. CC(C)c1csc(C(=O)N(C)c2ccc(Br)cn2)n1 gave T. brucei: -38.18%; Toxoplasma: -3.287%; Leishmania in macrophages: -2.191%.

[H][C@]12CCN(C(=O)Nc3ccccc3C)CC[C@@]1([H])S(=O)(=O)N(CC(C)C)C2 read T. brucei: -21.99%; Toxoplasma: -24.55%; Leishmania in macrophages: 5.42%. Cn1ccnc1CN1CCC(CCCc2ccccn2)(C(N)=O)CC1 read T. brucei: -1.37%; Toxoplasma: -17.18%; Leishmania in macrophages: 21.87%. Result for CCCC(=O)N1CCc2nc3cc(OC)c(OC)cc3c(=O)n2CC1 was T. brucei: 0.7244%; Toxoplasma: -3.936%; Leishmania in macrophages: -8.08% and 3.029%. With CC1CN(C(=O)c2ccnc(OCCN(C)C)c2)c2ccccc21 (stereo not drawn) the screen gave T. brucei: -7.187%; Toxoplasma: 2.032%; Leishmania in macrophages: 17.51%.

The first 4 entries again:

compound,T. brucei,Toxoplasma,Leishmania in macrophages
N[C@H]1CN(C(=O)c2ccccc2OCc2ccccc2)C[C@@H]1C1CC1,-,-24.22,-40.23
O=C(c1ccc2c(c1)COC2)N1CCC(Nc2cccnn2)CC1,30,6.67,1.342
N#Cc1ccccc1N1CCCN(C(=O)CCc2cccs2)CC1,5.471,-24.87,-3.78
CCN(CC)S(=O)(=O)NC1CCN(c2ccc(OC)cc2)CC1,7.564,0.1147,-6.326

Data taken from ChEMBL document CHEMBL3988442, “University of Dundee, Small-Polar-MMV Screening Library” (2021).